Measured values taken from PubChem BioAssay AID485353 (National Center for Advancing Translational Sciences (NCATS), 2010).
Hit rate of the full screen: of about 330,000 compounds, about 610 (0.18%) were called active. The inconclusive results got no clear call from the source; some entries with a clear call stand among them for comparison. Calls follow the shape of the full dose curve. Where the call is inconclusive, the potency comes from a doubtful curve fit.

Experiment: qHTS of Yeast-based Assay for SARS-CoV PLP; also: nearly all actives have a fitted effect of over 55% in size; as to activity, positive = growth rescue: 0% is about no effect
Details: S. cerevisiae expressing SARS-CoV PLpro; Potency: growth rescue; activity, positive = growth rescue: at 32.9 µM (top of the series)
Potency is read from the fitted curve at half-maximal effect.

Row | Compound | activity, positive = growth rescue | Potency
1 | CCCCOC(=O)c1ccc(NC(=O)c2c(OC)cccc2OC)cc1 | inactive: -11.6% | –
2 | Cc1ccn2c(C(=O)c3ccc(Cl)cc3)cnc2c1 | inactive: 1.58% | –
3 | CNC(=S)N/N=C(\C)c1ccc2c(c1)OCCO2 | – | inconclusive: 22.4 µM [activator, single point]
4 | Cn1c(C(=O)O)c(CC(=O)N2CCC(Cc3ccccc3)CC2)c2ccccc21 | – | inconclusive: 12.6 µM [activator, single point]
5 | CC(C)(C)c1ccc(/C=N/NC(=S)NC2CCCCC2)cc1 | – | active: 20 µM
6 | O=C(CCNC(=O)c1ccccc1Cl)N/N=C\c1ccc(O)cc1 | inactive: -6.92% | –
7 | C/C=C(\C)CN1CCc2cc(OC)c(OC)cc2C1 | – | inconclusive: 1.78 µM [activator, partial curve]
8 | COc1ccccc1/C=C/C(=O)NC(=S)N1CCOCC1 | – | inconclusive: 20 µM [activator, single point]
9 | O=[N+]([O-])c1ncccc1OCc1ccccc1Br | inactive: -7.67% | –
10 | COC(=O)c1ccc(NC(=S)Nc2ccccn2)cc1 | – | inconclusive: 2 µM [activator, partial curve]
11 | CCOc1ccc(C(=O)Nc2nnc(S(=O)(=O)N3CCCCC3)s2)cc1 | – | inconclusive: 11.2 µM [activator, single point]
12 | O=C(NCc1ccccn1)C(=O)N/N=C/c1ccc2c(c1)OCO2 | inactive: 0.0514% | –
13 | O=C(CN1C(=O)/C(=C\c2ccc(C(F)(F)F)cc2)Sc2ccccc21)NCc1ccco1 | – | active: 12.6 µM
14 | CC(=O)Nc1ccc(-c2csc(NCc3ccco3)n2)cc1 | – | inconclusive: 20 µM [activator, single point]
15 | Cc1n[nH]c(C)c1CCCOc1ccccc1 | – | inconclusive: 22.4 µM [activator, single point]
16 | COc1cc(OC)cc(C(=O)NC(c2ccccc2)c2ccccc2)c1 | – | inconclusive: 20 µM [activator, single point]
17 | COc1ccc2c(c1OC)CN(C)CCc1cc3c(cc1C(O)C2)OCO3 (stereo unspecified) | – | inconclusive: 20 µM [activator, single point]
18 | O=c1[nH]c(/C(Cl)=C/c2cccc(C(F)(F)F)c2)nc2cc(Cl)ccc12 | – | inconclusive: 3.98 µM [activator, single point]
19 | Cc1ccc(NC(=O)COc2coc(CN3c4ccccc4CC3C)cc2=O)c(C)c1 (stereo unspecified) | inactive: 0.899% | –
20 | CC(C)c1onc(C(=O)NC(C)c2ccccc2)c1[N+](=O)[O-] (stereo unspecified) | – | inconclusive: 4.47 µM [activator, single point]
21 | Cc1ccc(NC(=O)Nc2ccc3c(c2)CCC3)c(C)c1 | – | inconclusive: 12.6 µM [activator, partial curve]

Quoted from the listing:
Entry for `COc1ccc2c(c1OC)CN(C)CCc1cc3c(cc1C(O)C2)OCO3` (stereo unspecified) under Potency: inconclusive: 20 µM [activator, single point]
Entry for `Cc1ccn2c(C(=O)c3ccc(Cl)cc3)cnc2c1` under activity, positive = growth rescue: inactive: 1.58%
